Data: the supplement of paper PMC10849652
The other results are listed elsewhere or left out.

Sequences of proteins named here, by UniProt entry; tags and fusion partners are left off. A change or cut given only in a name is not applied to a line headed by its entry.
UniProt P61011: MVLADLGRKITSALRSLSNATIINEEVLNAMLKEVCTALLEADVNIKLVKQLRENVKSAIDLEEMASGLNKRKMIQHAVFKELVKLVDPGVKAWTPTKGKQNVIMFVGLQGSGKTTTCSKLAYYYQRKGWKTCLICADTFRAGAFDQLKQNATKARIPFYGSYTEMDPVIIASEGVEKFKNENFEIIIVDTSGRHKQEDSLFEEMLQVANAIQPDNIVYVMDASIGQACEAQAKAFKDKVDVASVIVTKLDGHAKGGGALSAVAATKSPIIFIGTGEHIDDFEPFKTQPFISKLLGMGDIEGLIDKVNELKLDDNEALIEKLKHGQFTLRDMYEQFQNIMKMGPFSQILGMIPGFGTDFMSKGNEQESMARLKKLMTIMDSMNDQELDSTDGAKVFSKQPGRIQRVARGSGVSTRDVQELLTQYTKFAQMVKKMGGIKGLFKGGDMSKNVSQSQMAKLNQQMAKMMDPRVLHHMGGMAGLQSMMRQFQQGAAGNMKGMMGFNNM
UniProt P78362, whole entry, looked up: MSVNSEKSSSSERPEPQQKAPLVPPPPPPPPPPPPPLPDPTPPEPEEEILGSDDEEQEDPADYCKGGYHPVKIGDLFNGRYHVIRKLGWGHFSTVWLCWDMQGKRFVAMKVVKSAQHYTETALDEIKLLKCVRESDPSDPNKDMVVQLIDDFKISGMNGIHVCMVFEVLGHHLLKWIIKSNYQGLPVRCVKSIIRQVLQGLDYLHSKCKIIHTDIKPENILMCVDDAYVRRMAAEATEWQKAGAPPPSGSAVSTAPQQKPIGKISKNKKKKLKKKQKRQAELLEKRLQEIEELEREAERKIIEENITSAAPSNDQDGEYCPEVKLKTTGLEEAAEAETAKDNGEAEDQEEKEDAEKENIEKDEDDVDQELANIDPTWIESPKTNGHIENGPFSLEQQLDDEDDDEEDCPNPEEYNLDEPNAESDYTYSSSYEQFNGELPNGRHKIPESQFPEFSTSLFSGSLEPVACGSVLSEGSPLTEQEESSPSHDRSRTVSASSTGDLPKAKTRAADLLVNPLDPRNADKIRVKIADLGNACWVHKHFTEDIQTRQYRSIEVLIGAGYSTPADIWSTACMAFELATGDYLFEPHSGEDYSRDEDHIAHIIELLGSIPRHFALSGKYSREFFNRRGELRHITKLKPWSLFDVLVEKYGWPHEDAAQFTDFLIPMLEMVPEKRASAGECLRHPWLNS
UniProt O76094: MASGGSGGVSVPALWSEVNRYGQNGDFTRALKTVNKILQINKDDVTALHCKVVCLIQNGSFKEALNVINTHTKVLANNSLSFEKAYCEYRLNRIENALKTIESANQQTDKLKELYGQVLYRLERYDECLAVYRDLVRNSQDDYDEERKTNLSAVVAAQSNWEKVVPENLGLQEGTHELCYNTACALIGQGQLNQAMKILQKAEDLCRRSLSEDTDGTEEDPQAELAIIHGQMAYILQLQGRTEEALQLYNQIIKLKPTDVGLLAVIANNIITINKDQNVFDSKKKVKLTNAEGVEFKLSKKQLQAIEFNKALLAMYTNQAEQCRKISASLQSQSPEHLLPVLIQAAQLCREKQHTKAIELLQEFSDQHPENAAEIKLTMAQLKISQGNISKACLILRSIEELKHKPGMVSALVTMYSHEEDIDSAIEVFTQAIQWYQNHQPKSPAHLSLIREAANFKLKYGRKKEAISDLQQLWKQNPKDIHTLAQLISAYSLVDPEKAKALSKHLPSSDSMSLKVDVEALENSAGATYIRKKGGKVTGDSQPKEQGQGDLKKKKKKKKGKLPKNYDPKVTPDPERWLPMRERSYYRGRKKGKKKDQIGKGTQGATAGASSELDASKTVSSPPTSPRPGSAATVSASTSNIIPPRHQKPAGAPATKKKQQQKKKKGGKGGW
UniProt Q8TCT7: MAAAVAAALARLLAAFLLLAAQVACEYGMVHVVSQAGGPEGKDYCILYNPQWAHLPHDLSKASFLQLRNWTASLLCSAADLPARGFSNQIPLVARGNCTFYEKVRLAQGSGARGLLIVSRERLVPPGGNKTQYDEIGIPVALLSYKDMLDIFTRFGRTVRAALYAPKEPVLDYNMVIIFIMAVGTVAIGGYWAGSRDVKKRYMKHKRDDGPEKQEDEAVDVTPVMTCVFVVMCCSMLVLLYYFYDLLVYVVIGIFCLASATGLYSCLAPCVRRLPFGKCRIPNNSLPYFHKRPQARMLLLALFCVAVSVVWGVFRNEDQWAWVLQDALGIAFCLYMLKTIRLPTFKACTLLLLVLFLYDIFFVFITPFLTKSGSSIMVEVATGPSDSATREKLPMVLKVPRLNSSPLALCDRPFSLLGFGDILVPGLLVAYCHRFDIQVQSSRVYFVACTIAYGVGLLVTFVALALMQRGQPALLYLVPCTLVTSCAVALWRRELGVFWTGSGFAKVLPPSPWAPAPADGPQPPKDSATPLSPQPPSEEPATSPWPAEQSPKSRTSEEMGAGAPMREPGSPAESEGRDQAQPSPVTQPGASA
UniProt O15269: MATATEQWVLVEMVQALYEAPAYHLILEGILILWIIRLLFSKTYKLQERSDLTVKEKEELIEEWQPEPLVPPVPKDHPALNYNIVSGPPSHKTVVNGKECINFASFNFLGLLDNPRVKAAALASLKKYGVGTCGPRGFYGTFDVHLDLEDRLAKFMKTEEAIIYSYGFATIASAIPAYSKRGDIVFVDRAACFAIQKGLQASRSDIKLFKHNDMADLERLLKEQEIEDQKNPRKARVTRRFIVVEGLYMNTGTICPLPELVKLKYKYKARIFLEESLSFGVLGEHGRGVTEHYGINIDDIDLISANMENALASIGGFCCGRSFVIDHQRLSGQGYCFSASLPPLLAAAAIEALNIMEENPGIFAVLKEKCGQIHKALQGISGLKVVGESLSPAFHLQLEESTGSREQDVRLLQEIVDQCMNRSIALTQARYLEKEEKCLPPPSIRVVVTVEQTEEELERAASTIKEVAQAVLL
UniProt Q13243: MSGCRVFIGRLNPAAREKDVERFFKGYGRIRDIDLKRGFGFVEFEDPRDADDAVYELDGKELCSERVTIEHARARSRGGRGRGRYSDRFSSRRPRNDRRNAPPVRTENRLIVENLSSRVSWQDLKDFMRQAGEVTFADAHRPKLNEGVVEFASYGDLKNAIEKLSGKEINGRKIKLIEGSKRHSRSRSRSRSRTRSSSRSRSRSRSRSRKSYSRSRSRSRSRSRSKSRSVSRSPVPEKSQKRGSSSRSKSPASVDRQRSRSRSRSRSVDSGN
UniProt Q9C004: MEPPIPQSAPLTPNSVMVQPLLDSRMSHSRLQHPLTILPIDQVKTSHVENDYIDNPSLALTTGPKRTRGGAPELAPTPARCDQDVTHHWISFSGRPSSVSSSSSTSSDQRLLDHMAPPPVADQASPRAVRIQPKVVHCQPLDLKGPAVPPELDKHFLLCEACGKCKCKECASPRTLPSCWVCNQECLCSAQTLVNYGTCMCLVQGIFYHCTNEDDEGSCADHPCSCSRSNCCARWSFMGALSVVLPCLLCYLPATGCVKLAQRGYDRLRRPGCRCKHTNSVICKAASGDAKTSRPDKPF
UniProt Q96EA4: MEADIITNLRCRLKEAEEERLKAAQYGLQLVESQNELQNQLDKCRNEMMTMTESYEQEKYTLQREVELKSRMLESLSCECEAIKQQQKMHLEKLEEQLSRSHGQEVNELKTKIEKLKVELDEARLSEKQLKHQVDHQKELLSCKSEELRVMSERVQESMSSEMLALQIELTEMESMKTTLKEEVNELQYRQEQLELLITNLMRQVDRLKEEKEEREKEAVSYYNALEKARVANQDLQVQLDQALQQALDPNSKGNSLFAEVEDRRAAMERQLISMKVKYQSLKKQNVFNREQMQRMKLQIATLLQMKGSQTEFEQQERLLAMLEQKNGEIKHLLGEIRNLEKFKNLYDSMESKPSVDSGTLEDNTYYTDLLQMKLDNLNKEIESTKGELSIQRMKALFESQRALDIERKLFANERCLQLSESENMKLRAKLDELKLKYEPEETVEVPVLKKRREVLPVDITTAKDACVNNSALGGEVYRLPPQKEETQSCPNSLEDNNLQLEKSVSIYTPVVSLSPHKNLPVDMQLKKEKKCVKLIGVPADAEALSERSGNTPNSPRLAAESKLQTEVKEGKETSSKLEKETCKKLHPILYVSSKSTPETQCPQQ
UniProt Q96JI7: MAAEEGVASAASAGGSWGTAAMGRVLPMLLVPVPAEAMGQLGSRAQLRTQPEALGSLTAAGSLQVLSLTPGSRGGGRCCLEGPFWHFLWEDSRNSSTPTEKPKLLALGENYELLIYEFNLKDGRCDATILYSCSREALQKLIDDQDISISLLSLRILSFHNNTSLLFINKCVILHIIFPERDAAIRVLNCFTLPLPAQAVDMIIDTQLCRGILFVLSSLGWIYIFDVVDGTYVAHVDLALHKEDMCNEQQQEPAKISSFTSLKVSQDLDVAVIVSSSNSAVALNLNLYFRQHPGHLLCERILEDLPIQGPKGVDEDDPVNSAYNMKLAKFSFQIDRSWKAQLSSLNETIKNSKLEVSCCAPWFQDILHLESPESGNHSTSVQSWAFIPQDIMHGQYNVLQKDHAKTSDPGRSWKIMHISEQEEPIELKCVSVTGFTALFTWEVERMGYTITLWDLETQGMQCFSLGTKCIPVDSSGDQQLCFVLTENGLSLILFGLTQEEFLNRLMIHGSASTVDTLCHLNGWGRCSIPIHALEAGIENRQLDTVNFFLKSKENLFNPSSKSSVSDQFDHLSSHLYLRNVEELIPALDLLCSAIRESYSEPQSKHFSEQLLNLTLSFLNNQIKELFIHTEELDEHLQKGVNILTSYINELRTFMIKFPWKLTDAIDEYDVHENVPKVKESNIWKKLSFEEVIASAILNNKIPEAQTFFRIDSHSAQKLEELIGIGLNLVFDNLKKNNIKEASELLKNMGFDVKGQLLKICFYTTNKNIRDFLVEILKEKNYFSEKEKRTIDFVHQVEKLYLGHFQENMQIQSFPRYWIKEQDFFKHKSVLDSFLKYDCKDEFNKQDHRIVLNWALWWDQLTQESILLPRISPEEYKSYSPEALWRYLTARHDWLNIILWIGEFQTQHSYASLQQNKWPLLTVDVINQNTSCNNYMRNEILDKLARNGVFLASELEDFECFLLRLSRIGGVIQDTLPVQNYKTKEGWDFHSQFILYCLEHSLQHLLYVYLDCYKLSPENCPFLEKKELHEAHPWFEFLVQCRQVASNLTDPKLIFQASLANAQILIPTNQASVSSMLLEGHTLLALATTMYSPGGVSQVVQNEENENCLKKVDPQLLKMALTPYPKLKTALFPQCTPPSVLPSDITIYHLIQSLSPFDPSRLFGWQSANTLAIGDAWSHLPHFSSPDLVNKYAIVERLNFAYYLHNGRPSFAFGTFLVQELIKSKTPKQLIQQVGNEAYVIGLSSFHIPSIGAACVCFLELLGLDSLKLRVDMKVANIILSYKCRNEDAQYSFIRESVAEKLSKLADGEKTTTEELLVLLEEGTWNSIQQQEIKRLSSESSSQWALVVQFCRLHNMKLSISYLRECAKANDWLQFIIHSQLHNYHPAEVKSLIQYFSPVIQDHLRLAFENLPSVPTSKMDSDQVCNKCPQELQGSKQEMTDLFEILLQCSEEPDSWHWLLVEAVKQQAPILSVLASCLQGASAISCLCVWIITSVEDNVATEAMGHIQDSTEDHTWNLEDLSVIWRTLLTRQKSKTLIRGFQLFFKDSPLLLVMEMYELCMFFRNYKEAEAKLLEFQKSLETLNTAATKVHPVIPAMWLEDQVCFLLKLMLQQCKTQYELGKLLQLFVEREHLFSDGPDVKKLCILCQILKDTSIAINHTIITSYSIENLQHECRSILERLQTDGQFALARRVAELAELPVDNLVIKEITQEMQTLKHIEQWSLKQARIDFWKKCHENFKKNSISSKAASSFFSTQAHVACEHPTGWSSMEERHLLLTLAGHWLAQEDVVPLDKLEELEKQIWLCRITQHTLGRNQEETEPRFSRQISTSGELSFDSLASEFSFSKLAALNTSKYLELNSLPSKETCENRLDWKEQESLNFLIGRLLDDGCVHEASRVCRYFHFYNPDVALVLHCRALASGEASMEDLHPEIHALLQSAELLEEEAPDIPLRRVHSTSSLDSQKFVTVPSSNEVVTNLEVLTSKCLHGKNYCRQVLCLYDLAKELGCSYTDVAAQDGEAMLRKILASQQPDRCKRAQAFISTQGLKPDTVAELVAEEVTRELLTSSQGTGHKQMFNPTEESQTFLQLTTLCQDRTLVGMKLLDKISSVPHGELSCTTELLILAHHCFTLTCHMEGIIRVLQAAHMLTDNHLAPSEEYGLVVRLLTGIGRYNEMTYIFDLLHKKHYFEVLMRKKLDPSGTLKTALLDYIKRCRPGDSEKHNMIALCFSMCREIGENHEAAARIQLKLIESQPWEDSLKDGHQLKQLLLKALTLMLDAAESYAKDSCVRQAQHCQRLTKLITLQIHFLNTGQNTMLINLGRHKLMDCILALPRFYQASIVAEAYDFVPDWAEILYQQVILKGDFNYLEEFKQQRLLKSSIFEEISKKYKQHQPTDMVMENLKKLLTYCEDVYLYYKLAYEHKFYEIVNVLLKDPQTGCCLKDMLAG

Tests used:
Experiment in all cases: log2 fold change, soluble protein after heating vs DMSO (PISA); higher = thermal stabilisation; K562 lysate, 10 uM; active = over 0.2 and 3.5 SD of the protein, either way, in both replicates (recomputed)
nilotinib = compound: Cc1cn(-c2cc(NC(=O)c3ccc(C)c(Nc4nccc(-c5cccnc5)n4)c3)cc(C(F)(F)F)c2)cn1 [nilotinib]
In short: (§1)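 Following dounce homogenisation of K562 pellets in PBS pH 7.4 with 1 mM MgCl2, crude extract at 1 mg/mL protein was incubated for 30 min with 10 μM compound. Aliquots were then heated for 3 min over 48°C-58°C and pooled, NP-40 was added to 0.5% at 4°C, and soluble protein was recovered as the supernatant at 21,000xg for 90 min. Channel-sum-equalised TMTpro 16plex LC-MS/MS quantified this protein. Each value, from duplicates, is a log-two fold change in thermal stability relative to solvent controls.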

[1] = compound: Cc1nc(Nc2n[nH]c3c2CN(C(=O)N[C@H](CN(C)C)c2ccccc2)C3(C)C)c2sccc2n1
In short: as §1

dasatinib = compound: Cc1nc(Nc2ncc(C(=O)Nc3c(C)cccc3Cl)s2)cc(N2CCN(CCO)CC2)n1 [dasatinib]
In short: as §1

[2] = compound: Cc1ncc(-c2ccnc(Nc3ccc(S(C)(=O)=O)cc3)n2)n1C(C)C
In short: as §1

[3] = compound: Cn1cc(-c2ccc3c(c2)CCN3C(=O)Cc2cccc(C(F)(F)F)c2)c2c(N)ncnc21
In short: as §1

quisinostat = compound: Cn1cc(CNCC2CCN(c3ncc(C(=O)NO)cn3)CC2)c2ccccc21 [quisinostat]
In short: as §1

tipifarnib = compound: Cn1cncc1[C@@](N)(c1ccc(Cl)cc1)c1ccc2c(c1)c(-c1cccc(Cl)c1)cc(=O)n2C [tipifarnib]
In short: as §1

[4] = compound: NC(=O)Nc1cc(-c2cccc(F)c2)sc1C(=O)N[C@H]1CCCNC1
In short: as §1

[5] = compound: NC(=O)c1cnc(N[C@@H]2CCCC[C@@H]2N)nc1Nc1cccc(-n2nccn2)c1
In short: as §1

[6] = compound: NC1(c2ccc(-c3nc4ccn5c(=O)[nH]nc5c4cc3-c3ccccc3)cc2)CCC1
In short: as §1

Target | log2 fold change (nilotinib) | log2 fold change [1] | log2 fold change (dasatinib) | log2 fold change [2] | log2 fold change [3] | log2 fold change (quisinostat) | log2 fold change (tipifarnib) | log2 fold change [4] | log2 fold change [5] | log2 fold change [6]
SRP54 (UniProt P61011) | inactive: 0.039 | inactive: 0.006 | inactive: -0.021 | inactive: 0 | inactive: 0.034 | inactive: 0.048 | inactive: -0.047 | inactive: -0.001 | inactive: -0.013 | inactive: -0.015
SPNS1 (UniProt Q9H2V7) | inactive: 0.04 | inactive: -0.025 | inactive: 0 | inactive: -0.017 | inactive: 0.028 | inactive: -0.039 | inactive: 0.069 | inactive: -0.032 | inactive: 0.013 | inactive: -0.005
STAM (UniProt Q92783) | inactive: 0.003 | inactive: 0.018 | inactive: 0.035 | inactive: -0.013 | inactive: 0 | inactive: 0.036 | inactive: 0.017 | inactive: -0.008 | inactive: 0.038 | inactive: 0.009
SRR (UniProt Q9GZT4) | inactive: -0.094 | inactive: -0.119 | inactive: 0.019 | inactive: 0.081 | inactive: -0.148 | inactive: -0.049 | inactive: 0.047 | inactive: -0.111 | inactive: -0.075 | inactive: -0.072
STAT6 (UniProt P42226) | inactive: 0 | inactive: 0.026 | inactive: -0.007 | inactive: -0.09 | inactive: -0.058 | inactive: -0.022 | inactive: -0.025 | inactive: 0.005 | inactive: 0.023 | inactive: 0.008
STC2 (UniProt O76061) | inactive: 0.062 | inactive: -0.089 | inactive: -0.033 | inactive: -0.036 | inactive: 0.127 | inactive: 0.055 | inactive: 0.071 | inactive: -0.034 | inactive: -0.28 | inactive: -0.06
SPTLC2 (UniProt O15270) | inactive: 0.027 | inactive: -0.01 | inactive: -0.007 | inactive: 0.045 | inactive: 0.045 | inactive: -0.066 | inactive: -0.06 | inactive: -0.02 | inactive: 0.008 | inactive: -0.001
SRP9 (UniProt P49458) | inactive: -0.058 | inactive: 0.01 | inactive: 0.032 | inactive: -0.025 | inactive: 0.006 | inactive: 0.026 | inactive: 0.026 | inactive: -0.053 | inactive: -0.01 | inactive: 0.007
SSB (UniProt E7ERC4) | inactive: -0.059 | inactive: 0.165 | inactive: 0.007 | inactive: 0.198 | inactive: -0.078 | inactive: -0.198 | inactive: 0.171 | inactive: 0.152 | inactive: -0.108 | inactive: -0.128
SPTAN1 (UniProt Q13813) | inactive: 0.019 | inactive: -0.008 | inactive: 0.052 | inactive: 0.01 | inactive: 0 | inactive: -0.023 | inactive: 0.018 | inactive: 0 | inactive: 0.009 | inactive: 0.008
SSNA1 (UniProt O43805) | inactive: -0.038 | inactive: 0.057 | inactive: -0.004 | inactive: -0.004 | inactive: -0.079 | inactive: 0.081 | inactive: 0.007 | inactive: -0.039 | inactive: 0.006 | inactive: 0.019
SRPK2 isoform 2 (UniProt P78362) | inactive: -0.005 | inactive: 0.077 | inactive: 0.004 | inactive: -0.002 | inactive: -0.004 | inactive: -0.09 | inactive: 0.001 | inactive: 0.119 | inactive: 0.006 | inactive: -0.034
SPATA5L1 (UniProt Q9BVQ7) | inactive: -0.012 | inactive: -0.003 | inactive: -0.115 | inactive: 0.016 | inactive: 0.093 | inactive: -0.059 | inactive: 0.028 | inactive: 0.047 | inactive: 0.039 | inactive: -0.092
SSR4 (UniProt P51571) | inactive: 0.008 | inactive: -0.004 | inactive: -0.03 | inactive: -0.009 | inactive: -0.025 | inactive: 0.043 | inactive: -0.017 | inactive: 0.016 | inactive: -0.005 | inactive: 0.013
SRP72 (UniProt O76094) | inactive: 0.018 | inactive: 0.009 | inactive: -0.034 | inactive: -0.003 | inactive: 0.029 | inactive: -0.015 | inactive: 0.004 | inactive: -0.022 | inactive: -0.008 | inactive: -0.036
STARD7 (UniProt Q9NQZ5) | inactive: 0.007 | inactive: 0.058 | inactive: 0.048 | inactive: 0.022 | inactive: -0.054 | inactive: -0.104 | inactive: 0.013 | inactive: 0 | inactive: 0.029 | inactive: -0.018
SPC25 (UniProt Q9HBM1) | inactive: 0.042 | inactive: -0.02 | inactive: 0.002 | inactive: 0.03 | inactive: 0.046 | inactive: -0.019 | inactive: 0 | inactive: -0.01 | inactive: 0.002 | inactive: 0
STAT5B (UniProt P51692) | inactive: -0.005 | inactive: -0.037 | inactive: 0.047 | inactive: -0.004 | inactive: 0.009 | inactive: -0.038 | inactive: -0.008 | inactive: 0.042 | inactive: -0.021 | inactive: 0.021
STAG1 (UniProt Q8WVM7) | inactive: 0.05 | inactive: -0.051 | inactive: 0.038 | inactive: 0.011 | inactive: -0.027 | inactive: 0.072 | inactive: -0.022 | inactive: 0.05 | inactive: 0.033 | inactive: -0.017
SPPL2B (UniProt Q8TCT7) | inactive: -0.002 | inactive: -0.008 | inactive: -0.038 | inactive: 0.026 | inactive: 0.022 | inactive: -0.065 | inactive: 0.004 | inactive: 0.061 | inactive: 0.015 | inactive: 0.048
SPTLC1 (UniProt O15269) | inactive: -0.007 | inactive: 0.009 | inactive: -0.007 | inactive: 0.026 | inactive: -0.009 | inactive: -0.071 | inactive: -0.013 | inactive: -0.012 | inactive: 0.035 | inactive: 0.011
SRSF5 (UniProt Q13243) | inactive: -0.014 | inactive: 0.025 | inactive: 0.028 | inactive: -0.015 | inactive: -0.008 | inactive: -0.109 | inactive: 0.001 | inactive: 0.009 | inactive: 0.054 | inactive: 0.039
SPCS1, A0A5F9YFS9 | inactive: -0.047 | inactive: -0.016 | inactive: -0.101 | inactive: 0.097 | inactive: -0.121 | inactive: 0.06 | inactive: -0.013 | inactive: 0.015 | inactive: -0.048 | inactive: 0.009
SPRY4 (UniProt Q9C004) | inactive: 0.028 | inactive: -0.041 | inactive: 0.01 | inactive: 0.05 | inactive: -0.014 | inactive: -0.007 | inactive: -0.017 | inactive: 0.022 | inactive: 0.014 | inactive: 0.012
SPDL1 (UniProt Q96EA4) | inactive: 0.021 | inactive: -0.026 | inactive: 0.076 | inactive: 0.022 | inactive: 0.01 | inactive: 0.037 | inactive: 0.02 | inactive: -0.018 | inactive: -0.007 | inactive: -0.045
SPG11 (UniProt Q96JI7) | inactive: -0.024 | inactive: 0.026 | inactive: -0.052 | inactive: 0.026 | inactive: 0.025 | inactive: -0.048 | inactive: -0.007 | inactive: -0.017 | inactive: 0.05 | inactive: -0.046
SPTBN2 (UniProt O15020) | inactive: -0.043 | inactive: -0.004 | inactive: 0.02 | inactive: 0.029 | inactive: 0.014 | inactive: 0.077 | inactive: 0.073 | inactive: 0.005 | inactive: 0.007 | inactive: 0.005
SPECC1 (UniProt Q5M775) | inactive: -0.035 | inactive: -0.037 | inactive: -0.038 | inactive: -0.032 | inactive: -0.007 | inactive: -0.067 | inactive: 0.036 | inactive: 0.019 | inactive: 0.045 | inactive: 0.038
SPECC1L (UniProt Q69YQ0) | inactive: -0.011 | inactive: -0.038 | inactive: -0.007 | inactive: 0.009 | inactive: -0.023 | inactive: -0.007 | inactive: 0 | inactive: -0.002 | inactive: 0.008 | inactive: -0.007
STARD3 isoform 3 (UniProt Q14849) | inactive: -0.06 | inactive: -0.008 | active: 0.272 | inactive: 0.063 | inactive: 0.02 | inactive: 0.027 | inactive: -0.047 | inactive: -0.039 | inactive: 0.015 | inactive: 0.026

Exported in markdown: part of the list above

| Target | log2 fold change (nilotinib) | log2 fold change [1] | log2 fold change (dasatinib) | log2 fold change [2] | log2 fold change [3] | log2 fold change (quisinostat) | log2 fold change (tipifarnib) | log2 fold change [4] | log2 fold change [5] | log2 fold change [6] |
| --- | --- | --- | --- | --- | --- | --- | --- | --- | --- | --- |
| SPNS1 (UniProt Q9H2V7) | inactive: 0.04 | inactive: -0.025 | inactive: 0 | inactive: -0.017 | inactive: 0.028 | inactive: -0.039 | inactive: 0.069 | inactive: -0.032 | inactive: 0.013 | inactive: -0.005 |
| STAM (UniProt Q92783) | inactive: 0.003 | inactive: 0.018 | inactive: 0.035 | inactive: -0.013 | inactive: 0 | inactive: 0.036 | inactive: 0.017 | inactive: -0.008 | inactive: 0.038 | inactive: 0.009 |
| SRR (UniProt Q9GZT4) | inactive: -0.094 | inactive: -0.119 | inactive: 0.019 | inactive: 0.081 | inactive: -0.148 | inactive: -0.049 | inactive: 0.047 | inactive: -0.111 | inactive: -0.075 | inactive: -0.072 |
| STAT6 (UniProt P42226) | inactive: 0 | inactive: 0.026 | inactive: -0.007 | inactive: -0.09 | inactive: -0.058 | inactive: -0.022 | inactive: -0.025 | inactive: 0.005 | inactive: 0.023 | inactive: 0.008 |
| STC2 (UniProt O76061) | inactive: 0.062 | inactive: -0.089 | inactive: -0.033 | inactive: -0.036 | inactive: 0.127 | inactive: 0.055 | inactive: 0.071 | inactive: -0.034 | inactive: -0.28 | inactive: -0.06 |
